Measurements taken from publication PMC7819943, “Rice protein-binding microarrays: a tool to detect cis-acting elements near promoter regions in rice”.
This is one part of the list.

By UniProt entry, the sequences of proteins in these tests, tags left out.
UniProt Q0JBA9, entry or part of it: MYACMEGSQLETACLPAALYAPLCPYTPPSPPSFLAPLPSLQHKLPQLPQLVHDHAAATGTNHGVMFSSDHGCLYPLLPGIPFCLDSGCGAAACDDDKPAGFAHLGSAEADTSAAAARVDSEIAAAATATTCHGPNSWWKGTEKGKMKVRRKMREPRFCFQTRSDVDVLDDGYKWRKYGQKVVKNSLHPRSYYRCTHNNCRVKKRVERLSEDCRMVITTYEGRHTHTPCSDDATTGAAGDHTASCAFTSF

molecular target: OsWRKY34 (Oryza sativa, UniProt Q0JBA9 1-250); assay: protein-binding microarray (RPBM); PBS, 2% BSA, 51.3 ng/ul salmon testes DNA, 50 uM zinc acetate, 200 nM TF, 25 C, 1 h; high values mean tight binding; details: protein: recombinant; tags: N-terminal polyhistidine and DsRed monomer fusion (pET32a); label: CyDye5-dUTP incorporated in the synthesized complementary strand; 3' TTTTT single-stranded linker to array surface; dsDNA, one strand shown
In short: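 Polyhistidine-tagged DsRed fusions of transcription factors, joined at the N-terminus, were expressed in E. coli BL21-CodonPlus and isolated on Ni–NTA. They were incubated at 200 nM for 1 h at 25 °C on a custom Agilent array, double-stranded and BSA-blocked, in PBS with 2% BSA, salmon testes DNA and 50 µM zinc acetate. The binding signal is per-feature fluorescence intensity (arbitrary units) read on an Axon 4000B scanner after washing.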

Sequence	binding signal
TTGTTGCTTCGCTTGGCTTTGCTACCGCTTCGTACCTTCCCGGAGTCACCTAGTGCAG	9700 fluorescence intensity (a.u.)
CCAGCGACCTCCTCCCCGCGCACGTGCCGCAGCCGGCTATCGGAGTCACCTAGTGCAG	8170 fluorescence intensity (a.u.)
TTGTGCTTAGTTCGGATGGGATTGTTCTGATATTGTTCCACGGAGTCACCTAGTGCAG	8790 fluorescence intensity (a.u.)
TGGAGACTAGGGTGTGTGCCTCCGGTTTTTATTTTTTTTCCGGAGTCACCTAGTGCAG	11100 fluorescence intensity (a.u.)
AGGTCGCCCATCCAGCCTCTGCGTTTAGTTGTTTGACCAACGGAGTCACCTAGTGCAG	8830 fluorescence intensity (a.u.)
CTCCTCCCTACCCATCTCCTCCGTTCCGCGCATCGCTACACGGAGTCACCTAGTGCAG	8310 fluorescence intensity (a.u.)
CGCACACATCTTCCAAATCGAATGCTGGTAGGATCTGAGACGGAGTCACCTAGTGCAG	8860 fluorescence intensity (a.u.)
GTACATGCATTATCCATATCTCTAAATTTAGCAATCACTTCGGAGTCACCTAGTGCAG	9480 fluorescence intensity (a.u.)
ACCATTTAACTCTCCCTTCGGCTGCAGCTGTGCATATGGACGGAGTCACCTAGTGCAG	10200 fluorescence intensity (a.u.)
GTCGTCGCTCCGTTCCACCGTTGGTTCGCAACCGAACCAACGGAGTCACCTAGTGCAG	8600 fluorescence intensity (a.u.)
AGGCAGCGTCGTGGTGGTGACTCCGTGCTGACTCGACCGTCGGAGTCACCTAGTGCAG	8110 fluorescence intensity (a.u.)
GTTGCTTTTCACCTTTTCTTTTTACTCAGGCTCACCCAGACGGAGTCACCTAGTGCAG	8100 fluorescence intensity (a.u.)
GAGCCACTGATGCACGTGAGTTTTCCATGTTTGGTGATTTCGGAGTCACCTAGTGCAG	8070 fluorescence intensity (a.u.)
GCACCACATCCTGCTCCTCGCCGATCGTCCTTGTAGGCTACGGAGTCACCTAGTGCAG	8340 fluorescence intensity (a.u.)
ATCACTATTATTATAGTCATTGTTATGTATGTTTCATCTTCGGAGTCACCTAGTGCAG	9990 fluorescence intensity (a.u.)
GGATCCACCCGCTTCTCTGACCGCGCGCCACGTTCGCTGACGGAGTCACCTAGTGCAG	9270 fluorescence intensity (a.u.)
TCCAGCGGTGGTTGAACATGTCTTTTGTTGTGAATATTTACGGAGTCACCTAGTGCAG	9290 fluorescence intensity (a.u.)
GCCTGTTCACTTTGATGTCATTTTCAACCTTATCAAATTTCGGAGTCACCTAGTGCAG	13100 fluorescence intensity (a.u.)
TACTTGTCTCCTGAGATTTTCCCCGTCTTTCCACTGTTCTCGGAGTCACCTAGTGCAG	8560 fluorescence intensity (a.u.)
GGTGGCGCCTACGTGGCTAGTTTGACTTGGTCTTCATCTACGGAGTCACCTAGTGCAG	9460 fluorescence intensity (a.u.)
CGTTTCTTTCTCGGCCCATCCAACACGCGCTCTTGCTTGACGGAGTCACCTAGTGCAG	12200 fluorescence intensity (a.u.)
CATTCTTTCATTCCTCACTCATCACTCAACGGTCCAGATTCGGAGTCACCTAGTGCAG	8530 fluorescence intensity (a.u.)
GGCCGCGGCGGTGCGACGAAGAGCGGCGTCGGACAAGGGCCGGAGTCACCTAGTGCAG	35900 fluorescence intensity (a.u.)
GACCATCTCGCGTCGCTCCTCCGGCCATCTCTTCAGCTCCCGGAGTCACCTAGTGCAG	8630 fluorescence intensity (a.u.)
AGGGTGGGCGTGATGGAGTTGGGTCGGCCGGGGTGTCCGGCGGAGTCACCTAGTGCAG	11700 fluorescence intensity (a.u.)
TTTGTCGCGTGATTTTTTTTCCTTCGTATTTGACGTTTTTCGGAGTCACCTAGTGCAG	10100 fluorescence intensity (a.u.)
AGACTCTTCTTCCCATATTCCTTAATTTTTAATTTTATTTCGGAGTCACCTAGTGCAG	9190 fluorescence intensity (a.u.)

Sequence	binding signal
TTACTTTTCCCACCTATCTTCACTACTTATCCAATCACAACGGAGTCACCTAGTGCAG	9810 fluorescence intensity (a.u.)
CCTCATGTACCGCACCTCCTCATCCTGTAATTTCGCGCGCCGGAGTCACCTAGTGCAG	10100 fluorescence intensity (a.u.)
TTGTGAGGCGATTTCCTAGTATTCAGTGTAGTAATGTTACCGGAGTCACCTAGTGCAG	8090 fluorescence intensity (a.u.)
ACAATATTTTGACTGTTTCGTTAATTTTTATGCCGTTTAGCGGAGTCACCTAGTGCAG	8470 fluorescence intensity (a.u.)
GTGTGGTGTTGTGGGAGCATGCAGCATGCTACCACCTATTCGGAGTCACCTAGTGCAG	8630 fluorescence intensity (a.u.)
TTTATCTAAATGCCCGGATTGCTCTTTCTCTTTCCTTCTTCGGAGTCACCTAGTGCAG	11800 fluorescence intensity (a.u.)
TGATGTCCCATACTTTTTTTTATTATAGGTTTGTTTATTTCGGAGTCACCTAGTGCAG	8250 fluorescence intensity (a.u.)
TCCACCTCACTCTCACTGATCTTGTCTCTCTTTCTCTTTCCGGAGTCACCTAGTGCAG	12400 fluorescence intensity (a.u.)
CATTGCCCTGCTTAGTTTCTTTCAACATTTCAGTCTGTAGCGGAGTCACCTAGTGCAG	9370 fluorescence intensity (a.u.)
ACGGAGGGTGTGCTCTGCTTATTAGTTATTTCTTCAACGACGGAGTCACCTAGTGCAG	9180 fluorescence intensity (a.u.)
CAAATTATGTAAAATGTTCTGTATTTTGTGCCAATTGACTCGGAGTCACCTAGTGCAG	8080 fluorescence intensity (a.u.)
AGCCCGATAATCTCCCTATTCTTTCCATTACCCTCTCCTACGGAGTCACCTAGTGCAG	8880 fluorescence intensity (a.u.)
AGTTTTTAAGAGCGTCTTTCAGCTGTGACATGGTTTTTTTCGGAGTCACCTAGTGCAG	8400 fluorescence intensity (a.u.)
CCACCACCACCGCTGCTTCCAAGTTCCAACCGCTCCCTCTCGGAGTCACCTAGTGCAG	9210 fluorescence intensity (a.u.)
TTGATTTTTTTAGCACATGTTTGACCGTTCGTCTTATTAACGGAGTCACCTAGTGCAG	13200 fluorescence intensity (a.u.)
GGTTAAACGTTACATAATGAAATCCAGGGTTTTTTTTCTTCGGAGTCACCTAGTGCAG	8300 fluorescence intensity (a.u.)
TGTCTCTTATCTCTTTCTTCTCTTTCCCACGACCACACATCGGAGTCACCTAGTGCAG	8030 fluorescence intensity (a.u.)
CCGCCGCCTTTGACCGCCGCGCGCGCGCGCCTACTATACCCGGAGTCACCTAGTGCAG	12600 fluorescence intensity (a.u.)
ATTCGGTTTTTTTCCTCTCTTTTTTCTCCACTTTTTTTTTCGGAGTCACCTAGTGCAG	10500 fluorescence intensity (a.u.)
GCGTCGCCACCGCCGTGATCACCACCATCGACAGCGCCAGCGGAGTCACCTAGTGCAG	9900 fluorescence intensity (a.u.)
CATATTTGCATGCACTCTCTGTTCTTCCCCTATTTCTTACCGGAGTCACCTAGTGCAG	9950 fluorescence intensity (a.u.)
ACCACTTCCGTAGCTGTGCAGTCTCTCTGTGTTGTACACGCGGAGTCACCTAGTGCAG	8410 fluorescence intensity (a.u.)
TGTTGGTGGTTGTACATTGGGTCTCAGGGTTAAAATCATACGGAGTCACCTAGTGCAG	14000 fluorescence intensity (a.u.)
GTAGCCACCCACACGACGCGCGCTGCCGCTGCTCACACCTCGGAGTCACCTAGTGCAG	8720 fluorescence intensity (a.u.)
ACTTGCGCGCGTCGTTACCCGTTTTGCCCTGACGCGTGCACGGAGTCACCTAGTGCAG	9140 fluorescence intensity (a.u.)
AGGATAATGCATACACTAGTAAGGCCCATAGATACATTTGCGGAGTCACCTAGTGCAG	8560 fluorescence intensity (a.u.)
ATCCTGACTACGCCATCGATCGTGCAAGTGCTGCTTTTATCGGAGTCACCTAGTGCAG	11800 fluorescence intensity (a.u.)

An excerpt of these results, as labelled records.
ACCATTTAACTCTCCCTTCGGCTGCAGCTGTGCATATGGACGGAGTCACCTAGTGCAG
  binding signal: 10200 fluorescence intensity (a.u.)
AGGCAGCGTCGTGGTGGTGACTCCGTGCTGACTCGACCGTCGGAGTCACCTAGTGCAG
  binding signal: 8110 fluorescence intensity (a.u.)
ACAATATTTTGACTGTTTCGTTAATTTTTATGCCGTTTAGCGGAGTCACCTAGTGCAG
  binding signal: 8470 fluorescence intensity (a.u.)
ACTTGCGCGCGTCGTTACCCGTTTTGCCCTGACGCGTGCACGGAGTCACCTAGTGCAG
  binding signal: 9140 fluorescence intensity (a.u.)
